We go through 5 sequences from article PMC9943670.

Amino acid sequences for entries named in this document (tags omitted). Chains listed by the source or under a name are the forms on record and can include a tag or linker.
UniProt P20263, other isoform, or with tags, fused parts or gaps: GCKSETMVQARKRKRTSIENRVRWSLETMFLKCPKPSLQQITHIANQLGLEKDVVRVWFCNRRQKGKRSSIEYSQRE
UniProt P20263, whole entry: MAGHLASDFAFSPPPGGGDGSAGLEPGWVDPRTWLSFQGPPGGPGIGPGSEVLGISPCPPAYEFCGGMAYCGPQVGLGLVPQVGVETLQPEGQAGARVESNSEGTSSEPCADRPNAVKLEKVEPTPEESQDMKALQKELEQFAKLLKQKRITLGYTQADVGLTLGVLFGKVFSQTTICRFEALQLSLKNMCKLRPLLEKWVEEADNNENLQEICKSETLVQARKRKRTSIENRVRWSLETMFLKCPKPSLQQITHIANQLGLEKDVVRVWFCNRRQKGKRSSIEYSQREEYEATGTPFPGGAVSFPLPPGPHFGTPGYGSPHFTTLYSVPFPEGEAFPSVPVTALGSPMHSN

For at least one entry, the source does not settle the construct or the ends of the probe. For part of these data: The comparison behind a weaker result is the experiment's own reference, which may not be listed here. For part of these data: At least one verdict rests on a figure or table, not on a statement of the authors. For part of these data: Where a protein sequence is shown, tags need not be part of it. For part of these data: Results from cells or extracts need not show a direct contact.

One data set addresses Oct4 POUHD (mouse) (UniProt P20263). The data set can be described thus: EMSA. The following applies: EMSA buffer composition not given, 1 h at RT, gels in 1x TG, 200 V, 4 C, probes annealed in 20 mM Tris-HCl pH 8.0, 50 mM MgCl2, 50 mM KCl, recombinant protein, protein details: tag cleaved by TEV (leaves G). On the technique in general: Mobility shift assays separate free from complexed probe on a gel.

For data set [1], the target named is T1, Brn2 POU (mouse) (UniProt P31360).
T1 sequence: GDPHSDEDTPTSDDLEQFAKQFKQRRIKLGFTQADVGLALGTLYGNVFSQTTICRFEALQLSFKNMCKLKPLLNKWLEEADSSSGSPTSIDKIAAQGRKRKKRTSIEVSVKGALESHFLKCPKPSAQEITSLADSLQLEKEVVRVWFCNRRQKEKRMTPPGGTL
In words: EMSA. The settings on record: 50 nM DNA, 10-500 nM protein, mainly monomer, dimer strongly reduced, negative cooperativity, EMSA buffer composition not given, 1 h at RT, gels in 1x TG, 200 V, 4 C, probes annealed in 20 mM Tris-HCl pH 8.0, 50 mM MgCl2, 50 mM KCl, recombinant protein, protein details: tag cleaved by TEV (leaves G).

The next data set concerns the target 3xFlag-Oct4 full length (UniProt P20263). The data set can be described thus: EMSA. The settings on record: HEK293T whole-cell extract, dimer, EMSA buffer composition not given, 1 h at RT, gels in 1x TG, 200 V, 4 C, probes annealed in 20 mM Tris-HCl pH 8.0, 50 mM MgCl2, 50 mM KCl, protein in a lysate after overexpression, protein details: 3xFlag.
Data set [2] addresses T1, Brn2 POU (mouse). The data set can be described thus: EMSA (single-tube dual color). The settings on record: FAM-CpGpal with Cy5-MORE, strong preference for MORE; 5mC at the central CpG (ATG5mCGCAT), both strands; EMSA buffer composition not given; 1 h at RT; gels in 1x TG, 200 V, 4 C; probes annealed in 20 mM Tris-HCl pH 8.0, 50 mM MgCl2, 50 mM KCl; recombinant protein; protein details: tag cleaved by TEV (leaves G); label: 5' Cy5 or FAM on forward strand.

The target in a further data set is GFP-Oct4 full length (UniProt P20263). The data set can be described thus: EMSA. The settings on record: 50 nM DNA, 25-800 nM protein, dimer, methylation state not stated; EMSA buffer composition not given; 1 h at RT; gels in 1x TG, 200 V, 4 C; probes annealed in 20 mM Tris-HCl pH 8.0, 50 mM MgCl2, 50 mM KCl; recombinant protein; protein details: GFP, Ni-affinity purified; label: 5' Cy5 on forward strand.

Setting [3] is: 5mC at the central CpG (ATG5mCGCAT), both strands, label: 5' Cy5 or FAM on forward strand.
[4] abbreviates: label: 5' Cy5 on forward strand.
The mark [5] stands for this setting: AT mutation affects overall binding and dimer formation, label: 5' FAM on forward strand.

As to “GAATCATATGCGCATAAGAATG (double strand) [CpGpal genomic (Zfp957)]”, the binding result with Oct4 POUHD (mouse) (genomic element, methylation state not stated, label: 5' Cy5 or FAM on forward strand) is reported as “binds”.

As to “GCCGCCTTATGCGCATAAGCCGCCGC (double strand) [CpGpal fully methylated]”, the binding result with Brn2 POU (mouse) [1] (setting [3]) is recorded as “binds”; with 3xFlag-Oct4 full length (setting [3]) it was “binds”; with Brn2 POU (mouse) [2], “binds more weakly”.

For “GCCGCCTTATGCGCATAAGCCGCCGC (double strand) [CpGpal unmethylated]”, the binding result with Brn2 POU (mouse) [1] (setting [4]), with GFP-Oct4 full length and in the data set with 3xFlag-Oct4 full length (setting [4]) was “binds” each time.

Turning to “GCCGCCTTATGCGCGTAAGCCGCCGC (double strand) [CpGpal Mutant 2]”, the binding result in the data set with Oct4 POUHD (mouse) (setting [5]) is “binds more weakly”.

For the sequence “GCCGCCTTGTGCGCATAAGCCGCCGC (double strand) [CpGpal Mutant 1]”, the binding result with Oct4 POUHD (mouse) (setting [5]) is “binds more weakly”.
